For data set [1], the system named is dPPR-U8A2 N318S,D348N,N353S,D383N. Put plainly: X-ray crystallography. The following applies: 2.60 A; recombinant protein; protein details: C-terminal 6xHis.
Data set [2] relates to dPPR-U8G2 N318T,N353T. Put plainly: X-ray crystallography. The following applies: 2.53 A; recombinant protein; protein details: C-terminal 6xHis.
In data set [3] the test system is dPPR-U8A2 N318S,D348N,N353S,D383N. Put plainly: EMSA. To be noted: reduced or abolished; EMSA: 25 mM Tris-HCl pH 8.0, 5 mM MgCl2, 5 mM DTT, 0.1 mg/ml BSA, 50 ng/ml heparin, 10% glycerol, ~2 nM 32P-RNA, 20 min on ice; recombinant protein; protein details: C-terminal 6xHis; label: 5'-32P.
Data set [4] relates to dPPR-U8G2 N318T,N353T. Put plainly: EMSA. To be noted: reduced or abolished; EMSA: 25 mM Tris-HCl pH 8.0, 5 mM MgCl2, 5 mM DTT, 0.1 mg/ml BSA, 50 ng/ml heparin, 10% glycerol, ~2 nM 32P-RNA, 20 min on ice; recombinant protein; protein details: C-terminal 6xHis; label: 5'-32P.

For at least one entry, the source does not settle the construct or the ends of the probe. For some of these results: The comparison behind a weaker result is the experiment's own reference, which may not be listed here. For some of these results: At least one verdict was read from the data and is not stated in words by the source.

“GGGGUUUUAAUUUUCCCC [18-nt U8A2 crystal RNA]”: the binding result in data set [1] is “binds”.
Consider “GGGGUUUUGGUUUUCCCC [18-nt U8G2 crystal RNA]”, for which the binding result in the data set with dPPR-U8G2 N318T,N353T [2] is “binds”.
Take UUUUUUUUUU [U10 target]: the binding result (in data set [3]; with dPPR-U8G2 N318T,N353T [4]) was “binds more weakly” throughout.

The values are drawn from PMC4837458.
